Data as given in patent US6426351B1, “Chelerythrine-based therapies for cancer” (priority 2000, dated 2002).
“Also recorded” adds a separate entry of the source. At least one compound was matched to its structure with a doubt left.

Tests used:
SQ-20B cells [1] = test: DAPI staining of cell and nuclear morphology (apoptosis); assay type: cell-based, human; conditions: 5 μM chelerythrine, 12 h after addition of drug
Protocol: DAPI was used to visualize nuclei […] and overlaid to the phase contrast image. Left, untreated control cells, right 5 μM chelerythrine treated cells.
5×10^5 SQ-20B cells were centrifuged at 1000 rpm and resuspended in approximately 100 μl of media. The cell suspension was then […] with 100 μl of DAPI (4′, 6-iamidino-2-phenylindole, Sigma, 1 μg/ml in PBT [PBS+1% Triton X-100]. One drop of this mixture was then placed on a microslide with a coverslip. The cells were viewed by fluorescence microscopy using an Olympus BX-40 microscope with a 100 Watt Mercury lamp, a 16 or 40×Fluorite objective, N.A. 0.75, (Leco #1-UB527) and a UV filter cube (ex 330-385 nm, em 420 nm, wide band pass, Leco #U-M536). Images were photographed using an Optronics cooled low-light video camera (Leco #DEI-470TB) with a 2× coupler (Leco #HR200-CMT). The image was saved to a digital file at 72 dpi for subsequent image processing with Paint Shop Pro 5 (JASC) running on a Windows NT4 workstation.
The inventors examined whether the concentrations of chelerythrine that decrease viability in the MTT assay induce apoptosis of SQ-20B cells. The inventors examined cell and nuclear morphology by DAPI staining (FIG. 3). Following exposure of SQ-20B cells to 5 μM chelerythrine, morphological changes consistent with apoptosis were observed (FIG. 3A) in nearly 100% of the cells 72 h following treatment.

SQ20B cells = test: MTT cytotoxicity assay, SQ20B, dependence on exposure time; assay type: cell-based, human; conditions: beyond 8 h up to a 56 h exposure
Protocol: Cytotoxicity was evaluated using modifications of a described MTT assay (Hansen et al., 1989). Briefly, cells growing as a monolayer were plated at a density of 500 cells/well in 96 well-plates and allowed to grow for 24 h. […] 6-13 days after drug treatment, 25 μl of a 5 mg/ml solution of MTT was added to each well followed 4 h later by the addition of 100 μl lysing buffer (20% sodium dodecyl sulfate, 50% N, N-dimethylformamide and 0.8% acetic acid, pH 4.7) for an additional 22 h. A microplate reader set at 570 nm was used to determine the absorbance. Results are expressed as the fraction of the optical density determined for cells treated with drug compared to those treated with vehicle.
The cytotoxic effects of chelerythrine were evaluated in 9 human tumor cell lines to assess its spectrum of activity. Chelerythrine decreased cell viability as determined by the MTT assay in a dose-dependent manner in MCF7 breast (wt p53)(Blagosklonny et al., 1995), MCF7ADR breast (resistant to adriamycin), HT29 colon (mutant p53)(Shao et al., 1997), DaOY brain (mutant p53)(U et al., 1998), and LnCaP (mutant p53) (Carroll et al., 1993) prostate cells (FIG. 2). The effective dose required to inhibit the growth by 50% of the cells (ED50) ranged between 2 and 5 μM upon exposure to drug for 4 h. […]

protein kinase C (PKC) = conditions: activity in the absence of Ca++, phosphatidylserine and dioleine; cited from earlier work
PKA = conditions: cited from earlier work
SQ-20B xenografts = test: SQ-20B xenograft tumor growth in nude mice; assay type: in vivo
Protocol: Athymic (nude) mice were injected SC in the right hind limb with 5×10^6 SQ20B cells. Tumors were allowed to grow for 8 days at which time treatment was started. Control mice were weighed and injected IP with PBS on days 8, 10, and 12. Treatment group 2 (n=10 were injected once IP on days 8, 10, and 12 with 2.5 mg/kg chelerythrine chloride, treatment group 3 (n=8) were injected once IP on days 8, 10, and 12 with 5 mg/kg chelerythrine chloride, and treatment group 4 (n=8) were injected once IP on days 8, 11 and 14 with 5 mg/kg chelerythrine chloride. Tumor volume was determined on days 8, 10, 13, 15, 17, 21. Each data point represents the mean of 1-3 individual studies +/−SEM. The Mann-Whitney Rank Sum Test (p<0.05) denoted in the graphs by “*”.
SQ-20B (1-5×10^6 tumor cells were injected into the right hind limbs of Sprague-Dawley nude mice (Fredrick Cancer Research Institute, Fredrick Md.). Xenografts were grown for 2-3 wk at which time animals were sorted into treatment groups such that the mean tumor volume was 45 mm^3+/−4.5 mm^3 (SD). At day 0, initial tumor volume was determined by direct measurement with calipers, and tumor volume was deterred and calculated using the equation 1×w^2×0.5 (Hallahan et al., 1995). During treatment tumor volumes were measured twice weekly and are presented as percent of original tumor volume. Data are presented as fractional tumor volume +/−SEM. […]

SQ-20B cells [2] = test: Agarose electrophoresis of low molecular weight DNA (laddering); assay type: cell-based, human; conditions: 5 μM chelerythrine, 12 h following exposure
SQ20B = test: Clonogenic survival of SQ20B with chelerythrine chloride and adriamycin; assay type: cell-based, human
endothelial cells = test: Clonogenic killing and apoptosis of endothelial cells; assay type: cell-based; conditions: FIG. 8

COc1ccc2c(c[n+](C)c3c4cc5c(cc4ccc23)OCO5)c1OC [chelerythrine, 1,2-dimethoxy-12-methyl[1,3]benzodioxolo[5,6-c]phenanthridinium]
apoptotic appearance (condensed nuclei, chromatin condensation) (SQ-20B cells [1]): appear apoptotic
ED50 with longer exposure (SQ20B cells): remained constant
Basal activity of the enzyme (protein kinase C (PKC)): not affected
IC50 (PKA): 170 µM
tumor regression (2 consecutive tumor measurements less than the original volume) (SQ-20B xenografts; all treatment groups, p<0.05, ANOVA): produced tumor regression in all treatment groups
tumor growth delay (SQ-20B xenografts; day 13 group 1, day 10 group 2, day 13 group 3, p<0.05): significantly produced tumor grow delay
DNA fragmentation / laddering (SQ-20B cells [2]): DNA fragmentation was observed; also recorded: characteristic laddering
toxicity to cells regardless of how much adriamycin is added (SQ20B; 6 μM chelerythrine chloride): appears to be toxic to cells
clonogenic survival (SQ20B; SQ-20B, chelerythrine at the doses that induce apoptosis (5 μM)): decreased
sensitivity of endothelial cells to induced apoptosis compared to tumor cells such as SQ-20B (endothelial cells): more sensitive
